# Source: article PMC7085228
# The chains behind the UniProt entries cited, without tags or fusion partners. Residues count along the entry.
# UniProt Q9QUK6, residues 26-835: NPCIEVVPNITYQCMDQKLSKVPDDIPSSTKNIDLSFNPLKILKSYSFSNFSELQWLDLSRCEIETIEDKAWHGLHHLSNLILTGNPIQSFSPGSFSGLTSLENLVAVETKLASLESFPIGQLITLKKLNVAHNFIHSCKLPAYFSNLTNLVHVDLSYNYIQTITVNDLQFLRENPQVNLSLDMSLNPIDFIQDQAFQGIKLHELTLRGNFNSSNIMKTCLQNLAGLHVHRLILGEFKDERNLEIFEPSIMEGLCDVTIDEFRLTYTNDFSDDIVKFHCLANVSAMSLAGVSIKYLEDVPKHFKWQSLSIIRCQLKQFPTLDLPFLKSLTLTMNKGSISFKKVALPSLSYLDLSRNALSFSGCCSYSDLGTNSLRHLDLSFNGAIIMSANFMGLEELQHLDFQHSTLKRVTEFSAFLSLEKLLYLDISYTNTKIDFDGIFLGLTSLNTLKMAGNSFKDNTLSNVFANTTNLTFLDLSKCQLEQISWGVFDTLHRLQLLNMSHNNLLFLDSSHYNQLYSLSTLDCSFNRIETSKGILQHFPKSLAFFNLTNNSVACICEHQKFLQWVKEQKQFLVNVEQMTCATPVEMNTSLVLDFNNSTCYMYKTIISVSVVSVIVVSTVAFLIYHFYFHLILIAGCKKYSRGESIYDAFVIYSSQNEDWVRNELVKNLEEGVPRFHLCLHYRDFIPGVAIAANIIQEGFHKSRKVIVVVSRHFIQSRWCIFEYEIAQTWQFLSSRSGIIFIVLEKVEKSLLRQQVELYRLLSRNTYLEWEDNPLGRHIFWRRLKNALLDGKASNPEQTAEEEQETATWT
# These are yes or no findings as the source states them, for the method shown. In cells and extracts the contact can be indirect. Some results given as binding are weak or reduced against the parent protein; the word gives no strength.
# Experiments:
# [1] = target: Toll-like receptor 4 (mouse (endogenous in CT26.WT)) (UniProt Q9QUK6); assay: co-IP; lysates of CT26.WT cells, LPS-stimulated (15 min), with or without 1 h pretreatment with L6H21 (5 or 10 uM) or MD2 neutralizing antibody (1 ug/mL); anti-TLR4 antibody at 4°C overnight, protein A+G agarose 4 h at 4°C; immunoblot for MD2
# [2] = target: Toll-like receptor 4 (mouse (endogenous in CT26.WT)) (UniProt Q9QUK6); assay: co-IP; CT26.WT cells transfected with the MD2 overexpression plasmid, treated with L6H21 for 1 h and then LPS; shown in Supplementary Figure S4A-B; method taken from the paper's only co-immunoprecipitation protocol
binding [1],binding [2],Binder
binds,–,"Myeloid differentiation protein 2 (protein, UniProt Q9JHF9 19-160) EKQQWFCNSSDAIISYSYCDHLKFPISISSEPCIRLRGTNGFVHVEFIPRGNLKYLYFNLFISVNSIELPKRKEVLCHGHDDDYSFCRALKGETVNTSIPFSFEGILFPKGHYRCVAEAIAGDTEEKLFCLNFTIIHRRDVN"
–,binds,"MD2 expressed from the recombinant plasmid vector MG51098-NH (protein, UniProt Q9JHF9 19-160) EKQQWFCNSSDAIISYSYCDHLKFPISISSEPCIRLRGTNGFVHVEFIPRGNLKYLYFNLFISVNSIELPKRKEVLCHGHDDDYSFCRALKGETVNTSIPFSFEGILFPKGHYRCVAEAIAGDTEEKLFCLNFTIIHRRDVN"
